{
  "source": "patent US20080311667A1",
  "about": "“Exogenous Markers for Oxidative Stress” (priority 2005, published 2008)",
  "key": {"[1]": {"tested_on": "blood from diabetic patients before and after PJ supplementation", "test": "Effect of diabetic patients' blood before and after 1 week of pomegranate juice (PJ) on TCL oxidation", "set-up": "species or system human", "conditions": "for TL-OOH vs. TL total amount / TL-epoxy vs. TL total amount: diabetic patients; for 4β oxysterol vs. cholesterol total amount / 7-keto oxysterol vs. cholesterol total amount / 7α oxysterol vs. cholesterol total amount / 7β oxysterol vs. cholesterol total amount / 25-OH oxysterol vs. cholesterol total amount / α-epoxy oxysterol vs. cholesterol total amount / β-epoxy oxysterol vs. cholesterol total amount: blood cells of diabetic patients"}, "[2]": {"tested_on": "blood from Parkinson's patients", "test": "Effect of Parkinson patients' blood on TCL oxidation", "set-up": "species or system human"}},
  "data": [
    {"smiles": "CCCCCC=CCC=CCCCCCCCC(=O)NC(Cc1ccc(O)cc1)C(=O)OC1CCC2(C)C(=CCC3C2CCC2(C)C(C(C)CCCC(C)C)CCC32)C1", "note": "(stereo not shown) [TCL, N-linoleyl tyrosine cholesteryl ester]", "values": [
      {"measurement": "TL-OOH vs. TL total amount", "setting": "[1]; Cells, After PJ (1 week)", "value": 0.313, "unit": "µM"},
      {"measurement": "TL-epoxy vs. TL total amount", "setting": "[1]; Cells, After PJ (1 week)", "value": 0.888, "unit": "µM"},
      {"measurement": "TL-OOH vs. TL total amount", "setting": "[1]; Cells, Before PJ", "value": 1.790, "unit": "µM"},
      {"measurement": "TL-epoxy vs. TL total amount", "setting": "[1]; Cells, Before PJ", "value": 23.70, "unit": "µM"},
      {"measurement": "TL-OOH vs. TL total amount", "setting": "[1]; Serum, After PJ (1 week)", "value": 0.781, "unit": "µM"},
      {"measurement": "TL-epoxy vs. TL total amount", "setting": "[1]; Serum, After PJ (1 week)", "value": 0.521, "unit": "µM"},
      {"measurement": "TL-OOH vs. TL total amount", "setting": "[1]; Serum, Before PJ", "value": 18.819, "unit": "µM"},
      {"measurement": "TL-epoxy vs. TL total amount", "setting": "[1]; Serum, Before PJ", "value": 9.112, "unit": "µM"},
      {"measurement": "4β oxysterol vs. cholesterol total amount", "setting": "[1]; After PJ", "value": 0, "unit": "µM"},
      {"measurement": "7-keto oxysterol vs. cholesterol total amount", "setting": "[1]; After PJ", "value": 0.477, "unit": "µM"},
      {"measurement": "7α oxysterol vs. cholesterol total amount", "setting": "[1]; After PJ", "value": 0.007, "unit": "µM"},
      {"measurement": "7β oxysterol vs. cholesterol total amount", "setting": "[1]; After PJ", "value": 0.017, "unit": "µM"},
      {"measurement": "25-OH oxysterol vs. cholesterol total amount", "setting": "[1]; After PJ", "value": 0, "unit": "µM"},
      {"measurement": "α-epoxy oxysterol vs. cholesterol total amount", "setting": "[1]; After PJ", "value": 0.076, "unit": "µM"},
      {"measurement": "β-epoxy oxysterol vs. cholesterol total amount", "setting": "[1]; After PJ", "value": 0.106, "unit": "µM"},
      {"measurement": "4β oxysterol vs. cholesterol total amount", "setting": "[1]; Before PJ", "value": 0.001, "unit": "µM"},
      {"measurement": "7-keto oxysterol vs. cholesterol total amount", "setting": "[1]; Before PJ", "value": 1.235, "unit": "µM"},
      {"measurement": "7α oxysterol vs. cholesterol total amount", "setting": "[1]; Before PJ", "value": 0.007, "unit": "µM"},
      {"measurement": "7β oxysterol vs. cholesterol total amount", "setting": "[1]; Before PJ", "value": 0.234, "unit": "µM"},
      {"measurement": "25-OH oxysterol vs. cholesterol total amount", "setting": "[1]; Before PJ", "value": 0, "unit": "µM"},
      {"measurement": "α-epoxy oxysterol vs. cholesterol total amount", "setting": "[1]; Before PJ", "value": 0.284, "unit": "µM"},
      {"measurement": "β-epoxy oxysterol vs. cholesterol total amount", "setting": "[1]; Before PJ", "value": 0.140, "unit": "µM"},
      {"measurement": "total amount of oxysterol", "setting": "[2]; Parkinson's patients vs. healthy", "value": "moderate increase"},
      {"measurement": "hydroperoxide (TL-OOH)", "setting": "[2]; cells and serum, Parkinson's patients", "value": "not present at all"},
      {"measurement": "total amount of Ox-TL", "setting": "[2]; cells and serum, Parkinson's patients vs. healthy", "value": "relatively moderate increase"}
    ]}
  ]
}
